Test results: patent US20010056085A1, “Methods of using vesicant drug formulations” (priority 1996, published 2001)
At least one compound was matched to its structure with a doubt left.

Experiment: Half-life of ADR destruction by UVA light in the presence of test compounds (decrease in absorbance at 480 nm)
Format: physicochemical
Conditions: for Half-Life of ADR Destruction, 100 μM Test Compound and 0.5 μM Riboflavin: 100 μM test compound with 0.5 μM riboflavin

Row | SMILES | Half-Life of ADR Destruction, 100 μM Test Compound (100 μM test compound alone) | Half-Life of ADR Destruction, 100 μM Test Compound and 0.5 μM Riboflavin
1 | O=c1cc(-c2ccccc2)oc2ccccc12 [4-Chromone-2-phenyl (Flavone), 4-Chromone-2-phenyl] | 20.1 min | 15.8 min
2 | OC[C@H]1O[C@@H](n2cnc3c(O)nc(O)nc32)[C@H](O)[C@@H]1O [Xanthine-9-ribose (Xanthosine), Xanthine-9-ribose] |  | 17.7 min
